Reference: PubChem BioAssay AID1259254 (NCATS, 2017)

Purpose: 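Genome-wide screen for genes that prevent DNA re-replication in cancer cells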 (primary screen)
System: human HCT116 colorectal cancer cells
Reagent: single siRNA against human genes
Timing: 3 days
Read-out: 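Imaged Hoechst DNA stain sorts each cell into a cycle phase by DNA amount; per plate, G2 fraction set to 0% for non-targeting and 100% for GMNN siRNA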
Reading the numbers: G2 robust z-score: higher = more G2 cells, more excess DNA replication
Call rule: 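Active siRNAs have a G2 robust z of 5 or more median absolute deviations over the median, which in these data means about 38% or higher of GMNN control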
This is an unselected part of about 59,000 deposited reagents. Of all reagents, about 1,550 (2.6%) were called active. 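G2 share is only a proxy for re-replication; each gene was hit by three separate siRNAs, and active genes were retested.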 A number with no mark means an inactive call. The numbers tell different reagents against one gene apart. Further read-outs or replicates are left out here. Not given: the amount of reagent.

Which result is listed for TSPAN12 #1?
G2 robust z-score: -0.761

For TSPAN12 #2, what was measured?
G2 robust z-score: -0.258

With TSPAN12 #3, how do the results read?
G2 robust z-score: -0.291

With OTULIN-DT #1, what was measured?
G2 robust z-score: 0.651

Which result is listed for OTULIN-DT #2?
G2 robust z-score: 0.373

With OTULIN-DT #3, what was measured?
G2 robust z-score: -0.92

2 successive records from above, quoted:
TSPAN12 #3 — G2 robust z-score = -0.291
OTULIN-DT #1 — G2 robust z-score = 0.651

The listing continues.
With CHCHD1 #1, what was measured?
G2 robust z-score: 0.677

For CHCHD1 #2, what does the deposit list?
G2 robust z-score: 0.547

What is on record for CHCHD1 #3?
G2 robust z-score: -0.977

With BBS1 #1, how do the results read?
G2 robust z-score: 0.015

What is on record for BBS1 #2?
G2 robust z-score: 4.34

What did the screen give for BBS1 #3?
G2 robust z-score: -1.11
